Test results: paper PMC10190289

Amino acid sequences for entries named in this document (tags omitted). A change or cut given only in a name is not applied to a line headed by its entry.
UniProt Q13705: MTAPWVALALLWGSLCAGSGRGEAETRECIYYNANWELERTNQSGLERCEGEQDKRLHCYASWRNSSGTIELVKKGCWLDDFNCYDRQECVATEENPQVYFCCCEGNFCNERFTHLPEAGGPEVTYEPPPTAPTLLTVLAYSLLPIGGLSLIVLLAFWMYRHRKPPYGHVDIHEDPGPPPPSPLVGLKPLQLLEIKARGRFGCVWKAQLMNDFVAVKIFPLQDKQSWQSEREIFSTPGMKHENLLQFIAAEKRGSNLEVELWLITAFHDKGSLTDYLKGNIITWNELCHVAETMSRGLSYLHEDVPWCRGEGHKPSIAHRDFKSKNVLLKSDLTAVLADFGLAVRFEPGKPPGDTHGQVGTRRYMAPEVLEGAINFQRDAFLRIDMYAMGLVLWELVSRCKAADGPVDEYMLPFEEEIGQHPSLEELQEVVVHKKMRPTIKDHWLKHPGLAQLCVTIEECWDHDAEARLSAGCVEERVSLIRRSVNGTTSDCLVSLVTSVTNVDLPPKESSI

Assays:
Experiment in all cases: co-IP; chondrocytes transfected with p3XFLAG-CMV-7.1-ACVR2B or muACVR2B for 36 h, activin A-overexpression conditions; lysis buffer 150 mM NaCl, 1% NP-40, 50 mM Tris, 0.2% SDS, 5 mM NaF; anti-FLAG overnight at 4 °C, protein A/G plus beads 6 h at 4 °C; blot for NOX4
[1] = biological target: muACVR2B Mu1 (G373 changed to K373) (UniProt Q13705)
[2] = biological target: muACVR2B Mu3 (Q401 changed to K401) (UniProt Q13705)
[3] = biological target: muACVR2B Mu2 (G399 changed to K399) (UniProt Q13705)

binding [1]: no binding
binding [2]: no binding
binding [3]: no binding
B1: NADPH oxidase 4 (Nox4), endogenous (protein, UniProt Q9JHI8 1-578)
chain: MAVSWRSWLANEGVKHLCLLIWLSLNVLLFWKTFLLYNQGPEYYYIHQMLGLGLCLSRASASVLNLNCSLILLPMCRTVLAYLRGSQKVPSRRTRRLLDKSKTLHITCGVTICIFSGVHVAAHLVNALNFSVNYSEDFLELNAARYQNEDPRKLLFTTIPGLTGVCMVVVLFLMVTASTYAIRVSNYDIFWYTHNLFFVFYMLLLLHVSGGLLKYQTNVDTHPPGCISLNQTSSQNMSIPDYVSEHFHGSLPRGFSKLEDRYQKTLVKICLEEPKFQAHFPQTWIWISGPLCLYCAERLYRCIRSNKPVTIISVINHPSDVMELRMIKENFKARPGQYIILHCPSVSALENHPFTLTMCPTETKATFGVHFKVVGDWTERFRDLLLPPSSQDSEILPFIHSRNYPKLYIDGPFGSPFEESLNYEVSLCVAGGIGVTPFASILNTLLDDWKPYKLRRLYFIWVCRDIQSFQWFADLLCVLHNKFWQENRPDFVNIQLYLSQTDGIQKIIGEKYHTLNSRLFIGRPRWKLLFDEIAKCNRGKTVGVFCCGPSSISKTLHSLSNRNNSYGTKFEYNKESFS

No constants are given. Whether binding was seen depends on the method and setting. Binding seen in cells or lysates may run through a third protein.
